Data source: PubChem BioAssay AID493246 (Drosophila RNAi Screening Center, 2011)

- Test: 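Genes fly cells need to grow and stay alive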 (primary screen)
- Cells: Drosophila Kc and S2R+ cells
- Knock-down reagent: long dsRNA against Drosophila genes
- Measured: 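Raw, unnormalised count of remaining cells in each well; per-plate z-scores of cell number underlie the calls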
- Scale: Kc cell number and S2R+ cell number: higher = more cells remaining
- Rule for the call: 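Active when the per-plate z-score of cell number is 3 or more in the direction of fewer cells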
The deposit covers about 21,000 reagents; shown is a random part of those with a known target gene and a result. Over the whole deposit, 429 (2%) got an active call. 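Values are raw and not normalised between plates; calls rest on per-plate z-scores that were not deposited.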 A number with no mark means an inactive call. Not stated in the record: the amount of reagent, the time to read-out.

For CG34136 [DRSC01833], the entry reads Kc cell number, rep 1 = 5.32e5; S2R+ cell number, rep 1 = 8.68e5. After knock-down of cic [DRSC14276], the screen gave Kc cell number, rep 1 = 1.43e6; Kc cell number, rep 2 = 1.43e6; S2R+ cell number, rep 1 = 7.21e5; S2R+ cell number, rep 2 = 8.22e5. cic [DRSC15708] gave Kc cell number, rep 1 = 1.11e6; Kc cell number, rep 2 = 1.04e6; S2R+ cell number, rep 1 = 7.03e5; S2R+ cell number, rep 2 = 7.75e5. Against cic [DRSC16918], the values are Kc cell number, rep 1 = 1.53e6; Kc cell number, rep 2 = 1.48e6; S2R+ cell number, rep 1 = 1.01e6; S2R+ cell number, rep 2 = 1.12e6. Depletion of cic [DRSC21243] resulted in: Kc cell number, rep 1 = 1.39e6; Kc cell number, rep 2 = 1.45e6; S2R+ cell number, rep 1 = 9.40e5; S2R+ cell number, rep 2 = 1.04e6. Against CG17806 [DRSC15276] the deposit lists Kc cell number, rep 1 = 1.54e6; Kc cell number, rep 2 = 1.62e6; S2R+ cell number, rep 1 = 1.19e6; S2R+ cell number, rep 2 = 1.25e6.

CG15387 [DRSC00401] scored Kc cell number, rep 1 = 1.53e6; Kc cell number, rep 2 = 1.56e6; S2R+ cell number, rep 1 = 1.04e6; S2R+ cell number, rep 2 = 1.18e6. For Teh4 [DRSC08457] the deposit lists Kc cell number, rep 1 = 1.56e6; Kc cell number, rep 2 = 1.45e6; S2R+ cell number, rep 1 = 1.07e6; S2R+ cell number, rep 2 = 1.27e6. With knock-down of CG17959 [DRSC18142], the screen gave Kc cell number, rep 1 = 1.52e6; Kc cell number, rep 2 = 1.46e6; S2R+ cell number, rep 1 = 9.69e5; S2R+ cell number, rep 2 = 1.09e6. Depletion of CG1640 [DRSC19750] resulted in: Kc cell number, rep 1 = 6.69e5; S2R+ cell number, rep 1 = 9.33e5. For brp [DRSC06245], the entry reads Kc cell number, rep 1 = 1.53e6; Kc cell number, rep 2 = 1.57e6; S2R+ cell number, rep 1 = 1.27e6; S2R+ cell number, rep 2 = 1.45e6. Knock-down of brp [DRSC06246] came out at: Kc cell number, rep 1 = 1.52e6; Kc cell number, rep 2 = 1.54e6; S2R+ cell number, rep 1 = 1.27e6; S2R+ cell number, rep 2 = 1.39e6.

For brp [DRSC06801], the entry reads Kc cell number, rep 1 = 1.59e6; Kc cell number, rep 2 = 1.60e6; S2R+ cell number, rep 1 = 1.25e6; S2R+ cell number, rep 2 = 1.44e6. After knock-down of CG14329 [DRSC14808], the screen gave Kc cell number, rep 1 = 1.55e6; Kc cell number, rep 2 = 1.48e6; S2R+ cell number, rep 1 = 1.18e6; S2R+ cell number, rep 2 = 1.25e6.
